No constants are given. Whether binding was seen depends on the method and setting. Binding seen in cells or lysates may run through a third protein. These calls come from enrichment with a bait or labelling near it, and not all partners need be listed. Tags and fused reporters may be left off the sequences shown.
Target: T1, Flag-FBXO2 (F-box only protein 2), stably expressed in human NP cells (UniProt Q9UK22)
T1 sequence: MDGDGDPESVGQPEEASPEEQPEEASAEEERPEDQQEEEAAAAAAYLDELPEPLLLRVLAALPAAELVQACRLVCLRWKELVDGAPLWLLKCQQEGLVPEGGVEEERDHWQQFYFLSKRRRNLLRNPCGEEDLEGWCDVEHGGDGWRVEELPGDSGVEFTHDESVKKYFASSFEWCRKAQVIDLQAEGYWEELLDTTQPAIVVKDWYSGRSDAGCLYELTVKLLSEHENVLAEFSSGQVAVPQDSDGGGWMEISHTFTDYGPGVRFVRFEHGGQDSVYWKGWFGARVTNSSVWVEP
Assay: affinity purification with mass spectrometry; lysate of human NP cells stably expressing Flag-FBXO2 or empty vector; IP buffer (100 mM NaCl, 20 mM Tris-HCl pH 8.0, 0.5 mM EDTA, 0.5% NP-40); ANTI-FLAG M2 Affinity Gel overnight at 4 °C; SDS-PAGE, Coomassie, MS

Amino acid sequences for entries named in this document (tags omitted). Residues count along the entry.
UniProt P80188, residues 21-198: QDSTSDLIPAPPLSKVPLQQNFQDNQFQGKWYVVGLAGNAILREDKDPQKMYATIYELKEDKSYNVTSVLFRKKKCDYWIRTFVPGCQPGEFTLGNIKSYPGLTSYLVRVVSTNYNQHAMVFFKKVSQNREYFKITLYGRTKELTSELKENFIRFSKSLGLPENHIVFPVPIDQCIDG

“lipocalin-2 (LCN2), endogenous in human NP cells (from UniProt P80188 21-198)” was tested, and the binding was “binds”.
